Our source for the binding values is paper PMC12849889.

Chains of the proteins cited; added tags and fusions are not shown. Lines headed by an entry give the natural chain unless they say otherwise; changes in a name come on top.
UniProt Q2QZ86: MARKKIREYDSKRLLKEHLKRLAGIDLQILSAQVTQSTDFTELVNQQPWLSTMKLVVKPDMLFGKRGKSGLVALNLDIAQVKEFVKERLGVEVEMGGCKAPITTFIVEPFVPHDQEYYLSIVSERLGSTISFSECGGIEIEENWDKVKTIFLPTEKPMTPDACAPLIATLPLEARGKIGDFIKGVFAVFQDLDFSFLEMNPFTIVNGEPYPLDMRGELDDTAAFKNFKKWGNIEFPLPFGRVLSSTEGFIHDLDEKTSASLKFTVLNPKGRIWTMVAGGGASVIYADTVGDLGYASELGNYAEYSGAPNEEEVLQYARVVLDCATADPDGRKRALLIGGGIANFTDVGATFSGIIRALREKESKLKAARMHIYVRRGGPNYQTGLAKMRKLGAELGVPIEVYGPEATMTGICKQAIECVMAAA

The target in assay [1] is T1, ADA2 (rice), Gal4 DNA-binding domain fusion in pGBKT7 (rice (Oryza sativa)) (UniProt Q75LL6).
T1 sequence: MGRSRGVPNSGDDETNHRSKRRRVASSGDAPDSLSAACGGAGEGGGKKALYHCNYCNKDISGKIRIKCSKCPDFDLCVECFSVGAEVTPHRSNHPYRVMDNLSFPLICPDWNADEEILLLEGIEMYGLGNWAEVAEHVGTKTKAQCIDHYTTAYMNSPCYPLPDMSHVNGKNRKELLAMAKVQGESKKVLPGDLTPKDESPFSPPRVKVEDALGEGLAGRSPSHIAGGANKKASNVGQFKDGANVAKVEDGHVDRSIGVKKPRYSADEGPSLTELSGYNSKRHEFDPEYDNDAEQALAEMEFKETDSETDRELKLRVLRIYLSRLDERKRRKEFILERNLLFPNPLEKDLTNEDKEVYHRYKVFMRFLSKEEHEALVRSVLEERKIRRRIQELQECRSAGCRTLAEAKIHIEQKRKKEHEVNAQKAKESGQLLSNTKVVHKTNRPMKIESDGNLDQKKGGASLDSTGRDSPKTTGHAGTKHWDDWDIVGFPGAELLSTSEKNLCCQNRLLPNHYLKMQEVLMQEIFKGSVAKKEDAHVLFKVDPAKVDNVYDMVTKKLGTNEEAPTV
Kind of assay: two-hybrid; ACLA2 in pGADT7 (AD), ADA2 or ACLB in pGBKT7 (BD); growth on SD-LTHA, control SD-LT.

In assay [2] the target is T2, GCN5-2×FLAG-2×HA (Ubipro::GCN5-2×FlAG-2×HA transgenic rice) (rice (Oryza sativa)) (UniProt Q338B9).
T2 sequence: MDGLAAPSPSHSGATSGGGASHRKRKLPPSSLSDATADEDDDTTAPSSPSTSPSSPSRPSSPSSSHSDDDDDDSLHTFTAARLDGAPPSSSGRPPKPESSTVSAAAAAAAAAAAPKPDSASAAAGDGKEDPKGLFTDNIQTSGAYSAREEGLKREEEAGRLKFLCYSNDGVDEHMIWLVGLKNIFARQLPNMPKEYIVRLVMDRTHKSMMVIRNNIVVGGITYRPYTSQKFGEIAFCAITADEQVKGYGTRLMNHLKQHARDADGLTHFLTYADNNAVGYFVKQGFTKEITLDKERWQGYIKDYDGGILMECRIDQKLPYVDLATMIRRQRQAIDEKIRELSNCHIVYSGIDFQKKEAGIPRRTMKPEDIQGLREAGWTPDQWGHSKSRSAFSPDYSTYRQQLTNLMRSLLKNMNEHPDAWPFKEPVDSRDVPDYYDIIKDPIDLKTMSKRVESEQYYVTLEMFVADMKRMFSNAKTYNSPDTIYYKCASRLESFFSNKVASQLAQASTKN
Kind of assay: co-IP; 14-day-old seedlings of GCN5-2×FLAG-2×HA transgenic or wild-type rice; RIPA buffer; anti-FLAG M2 magnetic beads overnight at 4 °C; blots with anti-HA, anti-ACLA2, anti-ADA2.

Assay [3] addresses T3, ADA2-FLAG (35S::ADA2-flag::NOS, tobacco) (rice (Oryza sativa)) (UniProt Q75LL6).
T3 sequence: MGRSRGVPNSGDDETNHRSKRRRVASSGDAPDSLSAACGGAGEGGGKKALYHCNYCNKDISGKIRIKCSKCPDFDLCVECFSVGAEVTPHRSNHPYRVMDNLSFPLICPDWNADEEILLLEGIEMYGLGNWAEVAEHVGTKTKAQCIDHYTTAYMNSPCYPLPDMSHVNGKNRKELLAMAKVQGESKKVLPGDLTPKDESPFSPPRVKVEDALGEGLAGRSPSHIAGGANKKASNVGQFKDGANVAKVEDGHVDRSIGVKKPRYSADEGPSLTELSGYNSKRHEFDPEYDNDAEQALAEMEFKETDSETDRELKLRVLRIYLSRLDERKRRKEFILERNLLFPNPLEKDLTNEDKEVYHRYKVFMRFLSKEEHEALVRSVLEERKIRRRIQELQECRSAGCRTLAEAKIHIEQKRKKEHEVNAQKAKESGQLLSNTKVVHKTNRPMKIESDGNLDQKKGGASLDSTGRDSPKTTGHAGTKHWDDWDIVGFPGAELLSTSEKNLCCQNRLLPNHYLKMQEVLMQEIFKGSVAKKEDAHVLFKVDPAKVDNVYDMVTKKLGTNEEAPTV
Description: co-IP; tobacco leaves co-expressing GCN5, ADA2-FLAG (or ADA2-KRH/A-FLAG) and ACLA2-ACLB from one vector; anti-FLAG beads; histones tested by immunoblots.

Assay [4] has as its target ACLA2-GST (rice (Oryza sativa)). Kind of assay: pull-down; GST or ACLA2-GST coupled with GST beads used to pull down ADA2-6×His; blots with anti-His and anti-GST.
Assay [5] addresses ACLA2-GFP (35S::ACLA2-GFP, rice protoplasts) (rice (Oryza sativa)). Kind of assay: co-IP; rice protoplasts co-transfected with 35S::ADA2-FLAG and 35S::ACLA2-GFP or GFP; lysed in RIPA buffer; anti-GFP magnetic beads overnight at 4 °C; blots with anti-GFP and anti-FLAG.
Assay [6] has as its target ACLA2-NLuc (rice (Oryza sativa)). Kind of assay: split reporter; split-luciferase complementation (NLuc/CLuc of firefly luciferase) in Nicotiana benthamiana leaves, 48 h after infiltration, 1 mM luciferin.

No constants are given. Whether binding was seen depends on the method and setting. Binding calls can cover weak binding; strength is not graded here. Tags and fused reporters may be left off the sequences shown. For part of these data: Binding seen in cells or lysates may run through a third protein.

Consider “ACLA2 (rice ATP-citrate lyase subunit A2), Gal4 activation domain fusion in pGADT7 (from UniProt Q2QZ86)”, for which the binding entry in assay [1] was “binds”.
Consider “ACLA2, endogenous in rice seedlings (from UniProt Q2QZ86)”, for which the binding entry in assay [2] is “binds”.
Take “histone H3, endogenous in tobacco leaves”: in assay [3], the binding entry is “binds”.

B1: ADA2-His (protein, UniProt Q75LL6 1-567)
chain: MGRSRGVPNSGDDETNHRSKRRRVASSGDAPDSLSAACGGAGEGGGKKALYHCNYCNKDISGKIRIKCSKCPDFDLCVECFSVGAEVTPHRSNHPYRVMDNLSFPLICPDWNADEEILLLEGIEMYGLGNWAEVAEHVGTKTKAQCIDHYTTAYMNSPCYPLPDMSHVNGKNRKELLAMAKVQGESKKVLPGDLTPKDESPFSPPRVKVEDALGEGLAGRSPSHIAGGANKKASNVGQFKDGANVAKVEDGHVDRSIGVKKPRYSADEGPSLTELSGYNSKRHEFDPEYDNDAEQALAEMEFKETDSETDRELKLRVLRIYLSRLDERKRRKEFILERNLLFPNPLEKDLTNEDKEVYHRYKVFMRFLSKEEHEALVRSVLEERKIRRRIQELQECRSAGCRTLAEAKIHIEQKRKKEHEVNAQKAKESGQLLSNTKVVHKTNRPMKIESDGNLDQKKGGASLDSTGRDSPKTTGHAGTKHWDDWDIVGFPGAELLSTSEKNLCCQNRLLPNHYLKMQEVLMQEIFKGSVAKKEDAHVLFKVDPAKVDNVYDMVTKKLGTNEEAPTV
B1: in assay [4], the binding entry is on record as “binds”.

B2: ADA2-FLAG (35S::ADA2-FLAG, rice protoplasts) (protein, UniProt Q75LL6 1-567)
chain: MGRSRGVPNSGDDETNHRSKRRRVASSGDAPDSLSAACGGAGEGGGKKALYHCNYCNKDISGKIRIKCSKCPDFDLCVECFSVGAEVTPHRSNHPYRVMDNLSFPLICPDWNADEEILLLEGIEMYGLGNWAEVAEHVGTKTKAQCIDHYTTAYMNSPCYPLPDMSHVNGKNRKELLAMAKVQGESKKVLPGDLTPKDESPFSPPRVKVEDALGEGLAGRSPSHIAGGANKKASNVGQFKDGANVAKVEDGHVDRSIGVKKPRYSADEGPSLTELSGYNSKRHEFDPEYDNDAEQALAEMEFKETDSETDRELKLRVLRIYLSRLDERKRRKEFILERNLLFPNPLEKDLTNEDKEVYHRYKVFMRFLSKEEHEALVRSVLEERKIRRRIQELQECRSAGCRTLAEAKIHIEQKRKKEHEVNAQKAKESGQLLSNTKVVHKTNRPMKIESDGNLDQKKGGASLDSTGRDSPKTTGHAGTKHWDDWDIVGFPGAELLSTSEKNLCCQNRLLPNHYLKMQEVLMQEIFKGSVAKKEDAHVLFKVDPAKVDNVYDMVTKKLGTNEEAPTV
As for B2, the binding result in assay [5] is “binds”.

B3: CLuc-ADA2 (protein, UniProt Q75LL6 1-567)
chain: MGRSRGVPNSGDDETNHRSKRRRVASSGDAPDSLSAACGGAGEGGGKKALYHCNYCNKDISGKIRIKCSKCPDFDLCVECFSVGAEVTPHRSNHPYRVMDNLSFPLICPDWNADEEILLLEGIEMYGLGNWAEVAEHVGTKTKAQCIDHYTTAYMNSPCYPLPDMSHVNGKNRKELLAMAKVQGESKKVLPGDLTPKDESPFSPPRVKVEDALGEGLAGRSPSHIAGGANKKASNVGQFKDGANVAKVEDGHVDRSIGVKKPRYSADEGPSLTELSGYNSKRHEFDPEYDNDAEQALAEMEFKETDSETDRELKLRVLRIYLSRLDERKRRKEFILERNLLFPNPLEKDLTNEDKEVYHRYKVFMRFLSKEEHEALVRSVLEERKIRRRIQELQECRSAGCRTLAEAKIHIEQKRKKEHEVNAQKAKESGQLLSNTKVVHKTNRPMKIESDGNLDQKKGGASLDSTGRDSPKTTGHAGTKHWDDWDIVGFPGAELLSTSEKNLCCQNRLLPNHYLKMQEVLMQEIFKGSVAKKEDAHVLFKVDPAKVDNVYDMVTKKLGTNEEAPTV
For B3, the binding result in assay [6] is “binds”.
